Binding data for 2 molecules are collected here from publication PMC4449194.

The chains behind the UniProt entries cited, without tags or fusion partners.
UniProt Q96EB6: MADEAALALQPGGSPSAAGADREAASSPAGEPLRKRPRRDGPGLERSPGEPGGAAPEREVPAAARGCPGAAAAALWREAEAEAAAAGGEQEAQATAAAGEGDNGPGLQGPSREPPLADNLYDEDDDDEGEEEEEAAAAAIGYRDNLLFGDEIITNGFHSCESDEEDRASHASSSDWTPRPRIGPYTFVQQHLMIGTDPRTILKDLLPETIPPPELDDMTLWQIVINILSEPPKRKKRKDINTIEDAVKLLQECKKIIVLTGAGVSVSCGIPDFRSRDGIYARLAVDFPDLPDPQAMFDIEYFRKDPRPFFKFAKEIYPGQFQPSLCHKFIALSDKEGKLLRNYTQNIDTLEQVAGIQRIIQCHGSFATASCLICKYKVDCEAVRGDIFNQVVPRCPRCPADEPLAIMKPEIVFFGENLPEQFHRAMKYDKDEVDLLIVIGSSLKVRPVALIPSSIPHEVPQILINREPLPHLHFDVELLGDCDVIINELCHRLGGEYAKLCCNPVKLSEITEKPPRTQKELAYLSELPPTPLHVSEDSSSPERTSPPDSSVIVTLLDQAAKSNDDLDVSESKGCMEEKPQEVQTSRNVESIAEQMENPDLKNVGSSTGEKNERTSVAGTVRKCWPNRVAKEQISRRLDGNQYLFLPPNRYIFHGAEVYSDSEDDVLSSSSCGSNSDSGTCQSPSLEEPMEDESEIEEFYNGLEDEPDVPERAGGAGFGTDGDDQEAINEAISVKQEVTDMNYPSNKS
UniProt P20226: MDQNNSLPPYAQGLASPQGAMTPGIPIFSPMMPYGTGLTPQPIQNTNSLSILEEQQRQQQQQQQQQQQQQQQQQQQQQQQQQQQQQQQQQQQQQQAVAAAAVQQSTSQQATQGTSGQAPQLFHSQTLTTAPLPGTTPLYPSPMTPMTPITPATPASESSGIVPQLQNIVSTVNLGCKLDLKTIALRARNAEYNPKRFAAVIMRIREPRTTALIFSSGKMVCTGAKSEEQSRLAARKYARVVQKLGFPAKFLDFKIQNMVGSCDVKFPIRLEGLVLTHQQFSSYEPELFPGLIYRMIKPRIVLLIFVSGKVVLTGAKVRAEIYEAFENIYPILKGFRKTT

No constants are given. Whether binding was seen depends on the method and setting. Binding seen in cells or lysates may run through a third protein. Some binding calls cover weakened binding; strength is not graded here. For some assays here: Tags and fused reporters may be left off the sequences shown.

Experiment [1] concerns the target GST-SIRT1 (UniProt Q96EB6). The experiment in a line: pull-down; 2 ug GST-tagged protein immobilised on Glutathione-Sepharose 4B, incubated with in vitro synthesized 35S-labeled proteins for 4 h at 4°C in 120 mM KCl, 20 mM Tris-HCl pH 7.9, 5 mM MgCl2, 0.2 mM EDTA, 10% glycerol, 0.2% NP-40; SDS-PAGE and PhosphorImaging; only the target purified.
Experiment [2] deals with T1, Flag-hTAFI110 (HEK293T) (human) (UniProt Q15572).
T1 sequence: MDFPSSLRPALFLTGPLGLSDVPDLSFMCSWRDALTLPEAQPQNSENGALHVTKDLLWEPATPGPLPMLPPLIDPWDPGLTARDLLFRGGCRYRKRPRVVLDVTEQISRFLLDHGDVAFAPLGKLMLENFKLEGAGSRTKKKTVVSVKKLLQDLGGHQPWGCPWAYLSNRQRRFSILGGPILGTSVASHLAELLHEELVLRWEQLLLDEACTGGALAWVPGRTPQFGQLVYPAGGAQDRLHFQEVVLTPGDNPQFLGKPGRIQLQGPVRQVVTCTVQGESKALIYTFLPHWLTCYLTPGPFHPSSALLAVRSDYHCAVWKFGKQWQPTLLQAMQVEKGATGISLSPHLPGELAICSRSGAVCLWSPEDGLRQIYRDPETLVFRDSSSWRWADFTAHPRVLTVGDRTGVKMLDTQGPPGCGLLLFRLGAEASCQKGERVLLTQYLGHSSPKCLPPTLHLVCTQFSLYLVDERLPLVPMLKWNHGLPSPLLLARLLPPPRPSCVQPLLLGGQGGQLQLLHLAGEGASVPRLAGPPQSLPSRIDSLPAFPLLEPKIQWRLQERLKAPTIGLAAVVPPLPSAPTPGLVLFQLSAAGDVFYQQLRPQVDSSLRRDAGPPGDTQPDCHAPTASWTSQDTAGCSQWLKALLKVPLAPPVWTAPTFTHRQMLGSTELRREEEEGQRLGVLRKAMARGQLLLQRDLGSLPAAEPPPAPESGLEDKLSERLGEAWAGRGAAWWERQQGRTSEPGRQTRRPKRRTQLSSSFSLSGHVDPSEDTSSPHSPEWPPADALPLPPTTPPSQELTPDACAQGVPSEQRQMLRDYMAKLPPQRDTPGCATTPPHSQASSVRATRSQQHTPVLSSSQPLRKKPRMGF
In words: co-IP; Flag-hTAFI110 and GFP-hCdc14B co-expressed in HEK293T (nocodazole 80 ng/ml 23 h, released 30 min); bound to M2-agarose, 120 mM KCl, 0.5% Triton X-100; blot with anti-GFP.

On to “35S-labeled hTBP (from UniProt P20226 1-339)”, for which, in experiment [1], the binding entry is reported as “binds”.

B1: GFP-hCdc14B (enzyme, UniProt O60729 1-498)
chain: MKRKSERRSSWAAAPPCSRRCSSTSPGVKKIRSSTQQDPRRRDPQDDVYLDITDRLCFAILYSRPKSASNVHYFSIDNELEYENFYADFGPLNLAMVYRYCCKINKKLKSITMLRKKIVHFTGSDQRKQANAAFLVGCYMVIYLGRTPEEAYRILIFGETSYIPFRDAAYGSCNFYITLLDCFHAVKKAMQYGFLNFNSFNLDEYEHYEKAENGDLNWIIPDRFIAFCGPHSRARLESGYHQHSPETYIQYFKNHNVTTIIRLNKRMYDAKRFTDAGFDHHDLFFADGSTPTDAIVKEFLDICENAEGAIAVHCKAGLGRTGTLIACYIMKHYRMTAAETIAWVRICRPGSVIGPQQQFLVMKQTNLWLEGDYFRQKLKGQENGQHRAAFSKLLSGVDDISINGVENQDQQEPEPYSDDDEINGVTQGDRLRALKSRRQSKTNAIPLTVILQSSVQSCKTSEPNISGSAGITKRTTRSASRKSSVKSLSISRTKTVLR
Turning to B1, in experiment [2], the binding entry was “binds”.
